Test results from the supplement of paper PMC7661543.
Differences between knockout arms are mostly noise.

Test system: SKBR3
Experiment: relative cell number vs DMSO control (72 h) (% of DMSO); higher = less growth inhibition (more cells)
Protocol: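 QMAP-Seq: a pool of 5 breast cancer cell lines (ZR-75-1, SKBR3, HCC-38, MDA-MB-231, BT-20), each carrying 12 doxycycline-inducible Cas9 sgRNA perturbations (11 knockouts plus non-targeting sgNT), was treated with compounds for 72 h at four 10-fold doses (10 nM-10 uM or 1 nM-1 uM range). Barcodes were amplified and sequenced, and cell number was interpolated from 293T spike-in standard curves. The result is expressed as % of the median of DMSO wells. Two biological replicates.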

CC[C@]1(O)C[C@H]2CN(CCc3c([nH]c4ccccc34)[C@@](C(=O)OC)(c3cc4c(cc3OC)N(C=O)[C@H]3[C@@](O)(C(=O)OC)[C@H](OC(C)=O)[C@]5(CC)C=CCN6CC[C@]43[C@@H]65)C2)C1 [Vincristine]
Conditions	relative cell number
sgRNA knockout: sgATF3, 10 nM	11.5
sgRNA knockout: sgATF3, 100 nM	12.6
sgRNA knockout: sgATF3, 1000 nM	10.2
sgRNA knockout: sgATF3, 10000 nM	7.67
sgRNA knockout: sgATF4, 10 nM	9.5
sgRNA knockout: sgATF4, 100 nM	8.24
sgRNA knockout: sgATF4, 1000 nM	8.36
sgRNA knockout: sgATF4, 10000 nM	14.7
sgRNA knockout: sgATF6, 10 nM	6.76
sgRNA knockout: sgATF6, 100 nM	4.61
sgRNA knockout: sgATF6, 1000 nM	12.1
sgRNA knockout: sgATF6, 10000 nM	6.32
sgRNA knockout: sgATG7, 10 nM	13
sgRNA knockout: sgATG7, 100 nM	8.34
sgRNA knockout: sgATG7, 1000 nM	14.9
sgRNA knockout: sgATG7, 10000 nM	7.38
sgRNA knockout: sgERN1, 10 nM	7.71
sgRNA knockout: sgERN1, 100 nM	8.34
sgRNA knockout: sgERN1, 1000 nM	7
sgRNA knockout: sgERN1, 10000 nM	7.92
sgRNA knockout: sgHSF1, 10 nM	9.18
sgRNA knockout: sgHSF1, 100 nM	7.64
sgRNA knockout: sgHSF1, 1000 nM	6.48
sgRNA knockout: sgHSF1, 10000 nM	12.3
sgRNA knockout: sgHSF2, 10 nM	12.3
sgRNA knockout: sgHSF2, 100 nM	8.62
sgRNA knockout: sgHSF2, 1000 nM	12.1
sgRNA knockout: sgHSF2, 10000 nM	11.1
sgRNA knockout: sgKEAP1, 10 nM	9.64
sgRNA knockout: sgKEAP1, 100 nM	4.15
sgRNA knockout: sgKEAP1, 1000 nM	9.51
sgRNA knockout: sgKEAP1, 10000 nM	11
sgRNA knockout: sgNFE2L2, 10 nM	14.3
sgRNA knockout: sgNFE2L2, 100 nM	5.77
sgRNA knockout: sgNFE2L2, 1000 nM	9.16
sgRNA knockout: sgNFE2L2, 10000 nM	8.42
sgRNA knockout: sgSLC35F2, 10 nM	10
sgRNA knockout: sgSLC35F2, 100 nM	7.36
sgRNA knockout: sgSLC35F2, 1000 nM	4.12
sgRNA knockout: sgSLC35F2, 10000 nM	8.24
sgRNA knockout: sgXBP1, 10 nM	8.39
sgRNA knockout: sgXBP1, 100 nM	9.24
sgRNA knockout: sgXBP1, 1000 nM	8.71
sgRNA knockout: sgXBP1, 10000 nM	7.54

Cc1ncc([N+](=O)[O-])n1CC(O)CCl (configuration not stated) [Ornidazole]
Conditions	relative cell number
sgRNA knockout: sgATF3, 10 nM	100
sgRNA knockout: sgATF3, 100 nM	85.9
sgRNA knockout: sgATF3, 1000 nM	100
sgRNA knockout: sgATF3, 10000 nM	68.1
sgRNA knockout: sgATF4, 10 nM	84
sgRNA knockout: sgATF4, 100 nM	92.1
sgRNA knockout: sgATF4, 1000 nM	102
sgRNA knockout: sgATF4, 10000 nM	80.7
sgRNA knockout: sgATF6, 10 nM	82.9
sgRNA knockout: sgATF6, 100 nM	99.7
sgRNA knockout: sgATF6, 1000 nM	86.1
sgRNA knockout: sgATF6, 10000 nM	116
sgRNA knockout: sgATG7, 10 nM	86.4
sgRNA knockout: sgATG7, 100 nM	104
sgRNA knockout: sgATG7, 1000 nM	94.9
sgRNA knockout: sgATG7, 10000 nM	97.08
sgRNA knockout: sgERN1, 10 nM	87.5
sgRNA knockout: sgERN1, 100 nM	113
sgRNA knockout: sgERN1, 1000 nM	107
sgRNA knockout: sgERN1, 10000 nM	96
sgRNA knockout: sgHSF1, 10 nM	107
sgRNA knockout: sgHSF1, 100 nM	96.5
sgRNA knockout: sgHSF1, 1000 nM	118
sgRNA knockout: sgHSF1, 10000 nM	96.5
sgRNA knockout: sgHSF2, 10 nM	97.6
sgRNA knockout: sgHSF2, 100 nM	95.3
sgRNA knockout: sgHSF2, 1000 nM	96
sgRNA knockout: sgHSF2, 10000 nM	109
sgRNA knockout: sgKEAP1, 10 nM	85.6
sgRNA knockout: sgKEAP1, 100 nM	87.8
sgRNA knockout: sgKEAP1, 1000 nM	97.5
sgRNA knockout: sgKEAP1, 10000 nM	106
sgRNA knockout: sgNFE2L2, 10 nM	92.6
sgRNA knockout: sgNFE2L2, 100 nM	104
sgRNA knockout: sgNFE2L2, 1000 nM	83.8
sgRNA knockout: sgNFE2L2, 10000 nM	85.4
sgRNA knockout: sgSLC35F2, 10 nM	101
sgRNA knockout: sgSLC35F2, 100 nM	94.8
sgRNA knockout: sgSLC35F2, 1000 nM	81.8
sgRNA knockout: sgSLC35F2, 10000 nM	99.7
sgRNA knockout: sgXBP1, 10 nM	77.6
sgRNA knockout: sgXBP1, 100 nM	101
sgRNA knockout: sgXBP1, 1000 nM	97.7
sgRNA knockout: sgXBP1, 10000 nM	81.9

O=P1(NCCCl)OCCCN1CCCl (configuration not stated) [Ifosfamide]
Conditions	relative cell number
sgRNA knockout: sgATF3, 10 nM	112
sgRNA knockout: sgATF3, 100 nM	96.2
sgRNA knockout: sgATF3, 1000 nM	120
sgRNA knockout: sgATF3, 10000 nM	100
sgRNA knockout: sgATF4, 10 nM	91.8
sgRNA knockout: sgATF4, 100 nM	99.7
sgRNA knockout: sgATF4, 1000 nM	98.5
sgRNA knockout: sgATF4, 10000 nM	99.4
sgRNA knockout: sgATF6, 10 nM	110
sgRNA knockout: sgATF6, 100 nM	95.3
sgRNA knockout: sgATF6, 1000 nM	97.5
sgRNA knockout: sgATF6, 10000 nM	95.9
sgRNA knockout: sgATG7, 10 nM	101.8
sgRNA knockout: sgATG7, 100 nM	105.7
sgRNA knockout: sgATG7, 1000 nM	101
sgRNA knockout: sgATG7, 10000 nM	102
sgRNA knockout: sgERN1, 10 nM	97.9
sgRNA knockout: sgERN1, 100 nM	88.7
sgRNA knockout: sgERN1, 1000 nM	74.8
sgRNA knockout: sgERN1, 10000 nM	106
sgRNA knockout: sgHSF1, 10 nM	86.9
sgRNA knockout: sgHSF1, 100 nM	91.5
sgRNA knockout: sgHSF1, 1000 nM	110
sgRNA knockout: sgHSF1, 10000 nM	88.8
sgRNA knockout: sgHSF2, 10 nM	114
sgRNA knockout: sgHSF2, 100 nM	71.6
sgRNA knockout: sgHSF2, 1000 nM	99.6
sgRNA knockout: sgHSF2, 10000 nM	82.6
sgRNA knockout: sgKEAP1, 10 nM	104
sgRNA knockout: sgKEAP1, 100 nM	108
sgRNA knockout: sgKEAP1, 1000 nM	85
sgRNA knockout: sgKEAP1, 10000 nM	81.2
sgRNA knockout: sgNFE2L2, 10 nM	108.6
sgRNA knockout: sgNFE2L2, 100 nM	101
sgRNA knockout: sgNFE2L2, 1000 nM	101
sgRNA knockout: sgNFE2L2, 10000 nM	101
sgRNA knockout: sgSLC35F2, 10 nM	108
sgRNA knockout: sgSLC35F2, 100 nM	110
sgRNA knockout: sgSLC35F2, 1000 nM	96
sgRNA knockout: sgSLC35F2, 10000 nM	80.3
sgRNA knockout: sgXBP1, 10 nM	112
sgRNA knockout: sgXBP1, 100 nM	93.8
sgRNA knockout: sgXBP1, 1000 nM	94.8
sgRNA knockout: sgXBP1, 10000 nM	104
